# Measured values published in PubChem BioAssay AID504648 (National Center for Advancing Translational Sciences (NCATS), 2011).
# Screen size: about 390,000 compounds; about 610 (0.16%) were called active. Inconclusive results, whose numbers are uncertain, are shown with a selection of clear calls. Calls follow the shape of the dose curve; as a rule, active = well fitted inhibition curve with a large enough effect; inconclusive = small, poorly fitted or top-dose-only effect, or effect the other way, or another doubt; inactive = no such curve, though single readings can be large or run the other way. Potencies beside an inconclusive call are fits to weak or partial responses and may not hold up.
# Assay: Nrf2 qHTS screen for inhibitors: counterscreen for cytotoxicity
# Conditions: A549 ARE-Fluc cells, CellTiter-Fluor viability, 18-24 h; series mostly up to 46 µM; activity change, negative = cytotoxicity: at the top concentration
# Method in brief: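 Cytotoxicity counterscreen: CellTiter-Fluor fluorescence was measured in A549 ARE_Fluc cells after 18-24 h of compound exposure in a concentration series. The subsequent BugLite luminescent read reports ARE-luciferase activity.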
# % is scaled to controls: 0 for no effect and ±100 for the full control effect; potency is read from the fitted curve at half-maximal effect.
SMILES,Potency,"activity change, negative = cytotoxicity"
COc1ccc2c(c1)C(NC(C)=O)CCc1cc(OC)c(OC)c(OC)c1-2 (configuration not stated),"inconclusive: 6.51 µM [falling, partial curve, poor fit]",–
CN1/C(=C\C=Nc2ccccc2)C(C)(C)c2ccccc21,"inconclusive: 29.1 µM [falling, single point]",–
COc1cc(C2c3cc4c(c(O)c3CC3COC(=O)C32)OCO4)cc(OC)c1OC (configuration not stated),"inconclusive: 5.8 µM [falling, partial curve, poor fit]",–
COC(=O)C1=C(c2ccc(Cl)c(C(F)(F)F)c2)C[C@@H]2CC[C@H]1N2C(=O)NCCOc1ccccc1Cl,"inconclusive: 20.6 µM [falling, single point]",–
COc1ccc(C2SCC(=O)Nc3c2c(C)nn3C2CCOC(C)(C)C2)cc1 (configuration not stated),–,inactive: 7.04%
Cc1cc(C)c(C(=O)CN2CCOCC2)c(C)c1,–,inactive: 1.04%
C/C(=N\Nc1ccccc1)c1c(O)[nH]c(=O)[nH]c1=O,–,inactive: -1.6%
COc1ccccc1CC1/C(=N/O)C2CCN1CC2 (configuration not stated),"inconclusive: 25.9 µM [activator, partial curve, poor fit]",–
CCCC(=O)NC1=C(N2CC2)C(=O)C(NC(=O)CCC)=C(N2CC2)C1=O,"inconclusive: 13 µM [falling, partial curve, poor fit]",–
CC(C)(O)/C=C/C(=O)[C@](C)(O)C1[C@H](O)C[C@@]2(C)C3CC=C4C(C[C@H](O)[C@@H](O)C4(C)C)[C@]3(C)C(=O)C[C@]12C (some centres not stated),"inconclusive: 1.16 µM [falling, full curve]",–
Clc1ccc2[nH]c3c(c2c1)CCNC3,"inconclusive: 23.1 µM [activator, single point]",–
CC1CN(C)C(C)(C)CC1(O)c1ccccc1 (configuration not stated),"inconclusive: 25.9 µM [activator, partial curve, poor fit]",–
Cc1cc(N=Nc2ccccc2C)ccc1N,"inconclusive: 20.6 µM [falling, partial curve, poor fit]",–
COC(=O)C1=C(c2ccc3ccccc3c2)C[C@@H]2CC[C@H]1N2C(=O)NCc1ccc(F)cc1,–,inactive: -17.6%
CCC(=O)c1cn(Cc2ccccc2)c2ccccc12,"inconclusive: 5.17 µM [activator, single point]",–
O=C(COc1ccc(S(=O)(=O)N2CCCCC2)cc1)N1CCN(Cc2ccccc2)CC1,–,inactive: -10.2%
COc1ccccc1/C=C1\C(=O)NC(=S)N(c2ccccc2)C1=O,–,inactive: 0.819%
COC(=O)C1=C(c2ccc(Cl)c(C(F)(F)F)c2)C[C@@H]2CC[C@H]1N2C(=O)N1CCC(O)(c2ccc(Cl)cc2)CC1,"inconclusive: 18.4 µM [falling, single point]",–
COc1ccc(-n2c(/C=C3\C(=O)Nc4ccccc43)nc3ccccc3c2=O)cc1,"inconclusive: 0.92 µM [falling, partial curve, poor fit]",–
CN(C)CCNC(=O)c1cccn(Cc2cc(C(F)(F)F)cc(C(F)(F)F)c2)c1=O,"inconclusive: 29.1 µM [falling, single point]",–
c1ccc2c(c1)[IH]c1ccccc1-2,active: 9.2 µM,–
[O-]c1ccccc1-[n+]1c(-c2ccccc2)cc(-c2ccccc2)cc1-c1ccccc1,"inconclusive: 18.4 µM [falling, single point]",–
CC1=CC2/C=C(\C)CCC(O)C(O)/C=C/C(=O)C23C(=O)NC(CC(C)C)C3C1C (configuration not stated),active: 16.4 µM,–
CC(=O)OC1C(O)C(C)OC(OC2C(OC(=O)C3CCC4C(C3)OC3(CC(OC(=O)/C=C/c5ccccc5)C(C)CO3)C43CO3)OC(C)C(O)C2OC(C)=O)C1O (configuration not stated),"inconclusive: 0.326 µM [falling, full curve, poor fit]",–
Cn1c(=O)oc2cc(S(=O)(=O)NCC3CCCO3)ccc21 (configuration not stated),"inconclusive: 9.2 µM [activator, partial curve, poor fit]",–
CC(C)CCOP(=O)(c1ccc(N(C)C)cc1)C(O)c1ccc(Cl)cc1Cl (configuration not stated),"inconclusive: 29.1 µM [falling, single point]",–
CN(CCc1ccccc1)Cc1c[nH]c2ccccc12,–,inactive: -14.6%
